These are yes or no findings as the source states them, for the method shown. Some entries that bind do so weakly or less than the wild type.
Molecular target: recombinant human PD-L1 (residue 18–239, extracellular domain) (human) (UniProt Q9NZQ7)
Test: affinity ultrafiltration (AUF) with nanoLC-MS/MS; 100 µL enzymatic hydrolysate at 50 mg/mL incubated with 100 µL of 50 µg/mL PD-L1 at 37 °C for 90 min under shaking; 10 kDa cut-off membrane, washed 3 times with DPBS; binders released with 90% methanol and 30 min sonication; identified by nanoLC-MS/MS; only the target purified

Amino acid sequences for entries named in this document (tags omitted). Residues count along the entry.
UniProt Q9NZQ7, residues 18-239: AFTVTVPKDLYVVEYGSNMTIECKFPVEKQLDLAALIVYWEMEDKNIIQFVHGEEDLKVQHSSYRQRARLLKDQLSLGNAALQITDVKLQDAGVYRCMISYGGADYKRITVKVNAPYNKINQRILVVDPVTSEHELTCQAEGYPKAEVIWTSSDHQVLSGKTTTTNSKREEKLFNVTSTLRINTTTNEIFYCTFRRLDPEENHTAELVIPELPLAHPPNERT

Binder | binding
FVDHIMDDQVVEDLTIK [C12] | binds
AFILPEGVSAER [S3] | binds
LVMVEAELERGEER [S15] | binds
VWLDPNETSMISNANSR [S4] | binds
FLEIFTQR [S1] | binds
VAPEEHPVLLTEAPLNPKANR [S6] | binds
DGILQIDAPVAVAIDNK [S13] | binds
HLDIPQMLDAQELVDMAKPDER [C13] | binds
DYEEAVMQNDATVGQLK [C14] | binds
LLEAQIATGGLIDPR [S16] | binds
AGFAGDDAPRAVFPSIVGRPR [C4] | binds
EELDMEHRRSK [S12] | binds
MTEQWMK [S14] | binds
AVMSLQMEMQQIMK [S7] | binds
ANAEVANWR [S19] | binds
TVQTLNLEIDSMR [S9] | binds

Binder | binding
VSYEESIEQLEIVK [C16] | binds
PLAIDLLHPSPEEEK [C8] | binds
QYEDMFGEDLVDR [C6] | binds
KDLYANTVLSGGSTMFPGIADR [C2] | binds
VLGSGTNLDSAR [S10] | binds
GYEEWLISEMR [S8] | binds
LLDPEDIVVERPDEK [C11] | binds
ISVDVNIPADAIIGR [C9] | binds
SNAVGITWSPVEGAEK [C15] | binds
KLETLQEELELLK [S17] | binds
VDTLMVRNNLR [S5] | binds
FTGMLSMLDDPEPFAR [S11] | binds
TVTFEEFLPMLAQIK [C3] | binds
QVNMANHLSKDSR [C7] | binds
PGAGGKSSTYGR [C10] | binds

More lines, now with the values ahead:

binding | Binder
binds | LSGGDIESYLLEK [S21]
binds | VVSQTEDVR [S23]
binds | EGIFEEEIK [C40]
binds | MAGTSDCVKR [S20]
binds | IVPPEDGDDEK [C39]
binds | AEQAEADKK [C42]
binds | EDDVQQMNPPK [S24]
binds | EILQGESNVQEVK [C33]
binds | TTNVVVADLSESK [C30]
binds | AGVLADLEDK [C32]
binds | EILIEDEGELK [C35]
binds | IEDLSGGELQR [C34]
binds | DGFIDKEDLK [C37]
binds | DAEEIEKDEQVAAEK [C41]
binds | SELDDELGR [C36]
binds | TSLEEQLEEEEESR [C38]
binds | NIKEGDIVKR [S22]
binds | KKDEEEIEELR [C31]
binds | LEMQEIQLTEAK [C24]

Reference: article PMC12028738 (Marine Drugs, 2025)
